Data as given in patent publication US10220026B2, “Micelle containing epirubicin-complexed block copolymer and anti-cancer agent, and pharmaceutical composition containing said micelle applicable to treatment of cancer, resistant cancer or metastatic cancer” (priority 2014, dated 2019).

Legend:
[1] = test system: cisplatin-resistant lung cancer cells (H460); assay: Elimination of epirubicin and eFluxx-ID-GFP by resistant strain (confocal microscopy), lung cancer; type: cell-based, human
Experimental: (§1) Epirubicin-resistant breast cancer cells (MCF-7) and cisplatin-resistant lung cancer cells (H460) were respectively disseminated in each of the wells of an 8-well Tek chambered cover glass (Thermo Fisher Scientific K.K.) at 1×10^4 cells/well followed by culturing overnight. The medium was then replaced with 200 μl of RPMI1640 (phenol red-free) containing 0.1 μg/ml of Hoechst 33342 and 10% FBS.
(§2) 200 μl of eFluxx-ID-GFP solution were added 1 hour after addition of drug. The medium was replaced with RPMI1640 medium containing 10% FBS 30 minutes after addition followed by observation with an LSM780 confocal microscope and taking photographs thereof (FIGS. 12B and 13B). Cells subjected to the procedure prior to acquiring resistance were used as a control and epirubicin was added for the drug. In this experiment, fluorescence-labeled epirubicin (manufacturer) was used for the epirubicin.

[2] = test system: Epirubicin-resistant breast cancer cells (MCF-7); assay: Elimination of epirubicin and eFluxx-ID-GFP by resistant strain (confocal microscopy), breast cancer; type: cell-based, human; conditions: epirubicin-resistant strain
Experimental: as §1, §2

With `CN[C@@H]1C[C@H]2O[C@@](C)([C@@H]1OC)n1c3ccccc3c3c4c(c5c6ccccc6n2c5c31)C(=O)NC4` [staurosporine] the “inhibition of ABC transporter” value [1] was “inhibited” and the “inhibition of ABC transporter” value [2] was “inhibited”.
